Assay results reported in publication PMC3828145.
No constants are given. Whether binding was seen depends on the method and setting. Some binding calls cover weakened binding; strength is not graded here.

Protein sequences, listed by entry. Tags and fused reporters are not part of them.
UniProt P53552: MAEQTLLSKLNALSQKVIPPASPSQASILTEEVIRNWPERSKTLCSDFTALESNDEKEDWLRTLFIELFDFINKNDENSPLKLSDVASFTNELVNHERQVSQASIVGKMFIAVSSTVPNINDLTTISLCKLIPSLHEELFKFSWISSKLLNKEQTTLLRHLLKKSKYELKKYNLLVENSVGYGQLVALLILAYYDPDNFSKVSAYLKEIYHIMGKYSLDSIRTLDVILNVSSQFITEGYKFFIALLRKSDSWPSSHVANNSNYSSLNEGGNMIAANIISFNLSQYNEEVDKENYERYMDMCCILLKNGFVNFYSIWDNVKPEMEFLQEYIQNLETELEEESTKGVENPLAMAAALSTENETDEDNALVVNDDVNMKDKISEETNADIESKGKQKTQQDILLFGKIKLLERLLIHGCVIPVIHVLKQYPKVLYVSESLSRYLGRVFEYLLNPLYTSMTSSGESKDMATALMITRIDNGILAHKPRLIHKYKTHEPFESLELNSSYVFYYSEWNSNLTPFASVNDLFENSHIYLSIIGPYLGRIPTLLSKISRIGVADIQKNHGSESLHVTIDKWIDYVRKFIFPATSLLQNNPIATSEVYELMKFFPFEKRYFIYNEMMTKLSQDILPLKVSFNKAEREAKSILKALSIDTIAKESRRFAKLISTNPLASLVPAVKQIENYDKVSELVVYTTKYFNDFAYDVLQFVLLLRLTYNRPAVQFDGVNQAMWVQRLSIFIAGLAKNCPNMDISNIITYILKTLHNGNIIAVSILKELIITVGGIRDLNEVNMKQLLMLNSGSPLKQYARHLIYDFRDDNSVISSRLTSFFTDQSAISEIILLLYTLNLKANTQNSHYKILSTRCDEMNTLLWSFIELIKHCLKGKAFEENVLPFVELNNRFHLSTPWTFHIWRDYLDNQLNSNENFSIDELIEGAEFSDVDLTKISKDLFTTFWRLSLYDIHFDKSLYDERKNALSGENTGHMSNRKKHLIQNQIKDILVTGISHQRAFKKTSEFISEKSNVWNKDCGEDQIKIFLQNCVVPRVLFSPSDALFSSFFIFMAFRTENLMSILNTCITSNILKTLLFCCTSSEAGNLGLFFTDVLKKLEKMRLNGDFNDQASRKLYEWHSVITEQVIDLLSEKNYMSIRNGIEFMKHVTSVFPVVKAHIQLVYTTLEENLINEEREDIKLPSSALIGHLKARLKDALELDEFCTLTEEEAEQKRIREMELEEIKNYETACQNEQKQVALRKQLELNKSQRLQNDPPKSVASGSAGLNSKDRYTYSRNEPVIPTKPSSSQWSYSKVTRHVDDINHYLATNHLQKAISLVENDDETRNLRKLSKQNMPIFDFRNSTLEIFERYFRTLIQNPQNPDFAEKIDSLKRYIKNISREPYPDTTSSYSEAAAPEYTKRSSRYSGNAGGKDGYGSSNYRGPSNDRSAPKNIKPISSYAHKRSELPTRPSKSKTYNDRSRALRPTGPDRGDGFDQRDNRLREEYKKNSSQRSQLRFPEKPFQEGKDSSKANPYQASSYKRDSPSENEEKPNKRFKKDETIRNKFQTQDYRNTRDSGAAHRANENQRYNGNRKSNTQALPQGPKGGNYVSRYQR

Tests used:
[1] = biological target: Tho2-TAP (C-terminally TAP-tagged Tho2) (S. cerevisiae) (UniProt P53552); experiment: tandem affinity purification; TAP-tagged bait purified from yeast lysate; lysate (input) and calmodulin eluate analysed by Coomassie stain and Western blot (anti-HA, anti-Yra1, anti-Sub2)
[2] = biological target: TAP-Tho2 (N-terminally TAP-tagged Tho2) (S. cerevisiae) (UniProt P53552); experiment: as above

binding [1]: binds | binding [2]: binds
B1: Sub2 (protein, UniProt Q07478 1-446)
chain: MSHEGEEDLLEYSDNEQEIQIDASKAAEAGETGAATSATEGDNNNNTAAGDKKGSYVGIHSTGFKDFLLKPELSRAIIDCGFEHPSEVQQHTIPQSIHGTDVLCQAKSGLGKTAVFVLSTLQQLDPVPGEVAVVVICNARELAYQIRNEYLRFSKYMPDVKTAVFYGGTPISKDAELLKNKDTAPHIVVATPGRLKALVREKYIDLSHVKNFVIDECDKVLEELDMRRDVQEIFRATPRDKQVMMFSATLSQEIRPICRRFLQNPLEIFVDDEAKLTLHGLQQYYIKLEEREKNRKLAQLLDDLEFNQVIIFVKSTTRANELTKLLNASNFPAITVHGHMKQEERIARYKAFKDFEKRICVSTDVFGRGIDIERINLAINYDLTNEADQYLHRVGRAGRFGTKGLAISFVSSKEDEEVLAKIQERFDVKIAEFPEEGIDPSTYLNN
